Values from PubChem BioAssay AID504764 (Drosophila RNAi Screening Center, 2011).
The screen tested about 22,000 reagents; below is a random part of those that have a named target and a result. Of all reagents, 403 (1.9%) were called active. 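Unnormalised raw counts per well; ratio z-scores behind the hit calls and whether each hit raises or lowers signal are not deposited.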 Reagents against one gene are numbered here. Names joined by + are all predicted targets of the reagent. The record does not give: the amount of reagent.

Purpose: 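Genome-wide screen for regulators of Notch-driven gene expression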 (primary screen)
Cells: Drosophila Kc167 cells
Reagents: long dsRNA against Drosophila genes
Duration: about 5 days (4 days dsRNA, then 24 h after transfection)
Treatment: transfection of constitutively active membrane-tethered Notch lacking the extracellular domain, read 24 h later
Measured: 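Light from a Notch-responsive E(spl)m3 luciferase reporter under active Notch, with control-promoter and no-Notch reporter wells to normalise; raw counts from paired wells a and b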
Direction: induced reporter light, run 1, well a and induced reporter light, run 1, well b: higher = more light from the Notch target reporter with active Notch; control promoter light, run 1, well a and control promoter light, run 1, well b: higher = more light from the viral control promoter (cell number, transfection, viability); uninduced reporter light, run 1, well a: higher = more light from the Notch target reporter without active Notch
Rule for the call: 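Wells with low control signal or poorly matching duplicates excluded; duplicates averaged; per source plate, z beyond ±2 for induced/control log2 ratio or beyond ±1.8 for induced/uninduced marks a hit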
Meaning of the calls: active = modifier hit (raised or lowered Notch signal); inactive = not a hit

predicted target	reagent	induced reporter light, run 1, well a	induced reporter light, run 1, well b	control promoter light, run 1, well a	control promoter light, run 1, well b	uninduced reporter light, run 1, well a	Outcome
Pvf1 (GeneID 32876)	1	1.16e5	1.19e5	1.02e5	54145	7920	inactive
CG13032 (GeneID 39863)	1	36950	31925	39595	49660	1840	inactive
cnn (GeneID 36491)	1	2.07e5	2.12e5	2.77e5	2.42e5	18095	inactive
cnn (GeneID 36491)	2	95720	1.05e5	1.36e5	1.47e5	9120	inactive
CG17050 (retired record) (GeneID 36482)	1	94965	94450	1.30e5	1.12e5	8930	inactive
ppk11 (GeneID 34299)	1	1.36e5	1.77e5	81625	1.16e5	20630	inactive
CG31077 (GeneID 318583)	1	1.38e5	1.12e5	1.54e5	1.79e5	8965	active
sand (GeneID 35777)	1	2.11e5	1.96e5	2.84e5	2.12e5	18895	inactive
rdgBbeta (GeneID 37011)	1	1.12e5	78355	1.50e5	1.37e5	9810	inactive
CG14042 + SP555	1	67080	62320	55575	52430	7670	inactive
CG14042 + SP555	2	1.67e5	1.53e5	1.69e5	1.96e5	11555	inactive
sty (GeneID 38424)	1	1.13e5	1.29e5	2.06e5	1.78e5	4540	inactive
Indy (GeneID 40049)	1	70745	82165	57965	63600	5450	inactive
CG17784 (GeneID 42909)	1	1.42e5	1.30e5	1.41e5	1.64e5	10305	inactive
Phax (GeneID 35926)	1	1.28e5	1.22e5	1.83e5	1.71e5	13365	inactive
CG13622 (GeneID 42923)	1	1.70e5	1.38e5	1.93e5	1.79e5	14015	inactive
CG33267 (GeneID 2768969)	1	1.95e5	2.14e5	2.57e5	2.27e5	12232	inactive
Muc26B (GeneID 50424)	1	1.20e5	84545	92165	87365	6265	inactive
GstE8 (GeneID 37113)	1	1.10e5	1.09e5	1.92e5	2.07e5	8865	inactive
Tsp68C (GeneID 117407)	1	2.39e5	2.09e5	2.32e5	3.08e5	22075	inactive
CG5721 (GeneID 37084)	1	97130	1.04e5	2.13e5	2.11e5	7035	inactive
mRpL30 (GeneID 31398)	1	1.03e5	1.09e5	1.37e5	1.64e5	8505	inactive
CG3071 (GeneID 31213)	1	1.48e5	1.80e5	1.99e5	2.23e5	11115	inactive
Spt6 (GeneID 44000)	1	27530	23692	37910	29685	2095	inactive
CG30340 (GeneID 246550)	1	45770	63095	73995	80815	3110	inactive
for (GeneID 44817)	1	33920	28885	21210	20788	4790	inactive
for (GeneID 44817)	2	76160	89870	72290	71340	7235	inactive
MESR4 (GeneID 36986)	1	1.67e5	1.24e5	1.66e5	1.74e5	11870	inactive
CG16756 (GeneID 31460)	1	1.60e5	1.38e5	3.23e5	2.35e5	11742	inactive
ClC-a (GeneID 41428)	1	99720	93365	86245	67415	6190	inactive
ClC-a (GeneID 41428)	2	88820	84680	76080	79020	5720	inactive
ClC-a (GeneID 41428)	3	1.56e5	1.28e5	93010	78880	10565	inactive
CG12773 (GeneID 31082)	1	2.01e5	1.69e5	2.55e5	2.62e5	11120	inactive
tamo (GeneID 37864)	1	1.50e5	1.82e5	1.05e5	1.32e5	12930	inactive

Reformatted: 2 of the entries above
CG3071 (GeneID 31213)
- induced reporter light, run 1, well a: 1.48e5
- induced reporter light, run 1, well b: 1.80e5
- control promoter light, run 1, well a: 1.99e5
- control promoter light, run 1, well b: 2.23e5
- uninduced reporter light, run 1, well a: 11115
- Outcome: inactive

Spt6 (GeneID 44000)
- induced reporter light, run 1, well a: 27530
- induced reporter light, run 1, well b: 23692
- control promoter light, run 1, well a: 37910
- control promoter light, run 1, well b: 29685
- uninduced reporter light, run 1, well a: 2095
- Outcome: inactive
